Experimental data reported in the supplement of paper PMC12819154, “High-throughput peptide-centric local stability assay extends protein–ligand identification to membrane proteins, tissues and bacteria” (Nature Structural & Molecular Biology, 2025).
The other results are listed elsewhere or left out. Small differences around the control level are noise.

By UniProt entry, the sequences of proteins in these tests, tags left out. Where a name states a change or a piece, a line headed by the entry shows the natural chain unless it says otherwise.
UniProt Q9UM11, whole entry: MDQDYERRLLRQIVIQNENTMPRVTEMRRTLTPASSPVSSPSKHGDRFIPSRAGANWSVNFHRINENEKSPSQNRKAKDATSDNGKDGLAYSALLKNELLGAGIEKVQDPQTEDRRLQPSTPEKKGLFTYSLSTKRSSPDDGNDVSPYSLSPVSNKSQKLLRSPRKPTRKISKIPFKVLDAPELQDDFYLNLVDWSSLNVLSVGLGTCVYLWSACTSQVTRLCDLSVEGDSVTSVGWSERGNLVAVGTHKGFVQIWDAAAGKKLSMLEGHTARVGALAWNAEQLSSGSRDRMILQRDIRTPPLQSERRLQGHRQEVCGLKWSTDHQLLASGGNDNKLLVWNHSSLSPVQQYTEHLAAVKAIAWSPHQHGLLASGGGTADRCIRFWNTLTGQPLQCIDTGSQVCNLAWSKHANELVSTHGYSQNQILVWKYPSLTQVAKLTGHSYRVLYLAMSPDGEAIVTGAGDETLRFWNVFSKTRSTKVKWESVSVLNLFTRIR
UniProt Q9UJ04: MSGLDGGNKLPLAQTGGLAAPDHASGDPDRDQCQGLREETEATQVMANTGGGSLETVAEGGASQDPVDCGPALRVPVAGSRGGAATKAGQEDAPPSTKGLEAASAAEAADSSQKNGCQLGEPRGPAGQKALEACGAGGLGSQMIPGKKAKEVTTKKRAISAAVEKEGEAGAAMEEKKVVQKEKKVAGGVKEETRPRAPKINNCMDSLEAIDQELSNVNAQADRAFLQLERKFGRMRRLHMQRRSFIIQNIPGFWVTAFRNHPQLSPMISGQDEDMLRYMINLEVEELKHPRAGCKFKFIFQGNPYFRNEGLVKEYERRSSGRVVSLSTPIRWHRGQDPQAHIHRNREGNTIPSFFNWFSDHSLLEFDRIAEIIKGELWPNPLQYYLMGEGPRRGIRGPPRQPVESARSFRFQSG
UniProt Q9UM47, whole entry: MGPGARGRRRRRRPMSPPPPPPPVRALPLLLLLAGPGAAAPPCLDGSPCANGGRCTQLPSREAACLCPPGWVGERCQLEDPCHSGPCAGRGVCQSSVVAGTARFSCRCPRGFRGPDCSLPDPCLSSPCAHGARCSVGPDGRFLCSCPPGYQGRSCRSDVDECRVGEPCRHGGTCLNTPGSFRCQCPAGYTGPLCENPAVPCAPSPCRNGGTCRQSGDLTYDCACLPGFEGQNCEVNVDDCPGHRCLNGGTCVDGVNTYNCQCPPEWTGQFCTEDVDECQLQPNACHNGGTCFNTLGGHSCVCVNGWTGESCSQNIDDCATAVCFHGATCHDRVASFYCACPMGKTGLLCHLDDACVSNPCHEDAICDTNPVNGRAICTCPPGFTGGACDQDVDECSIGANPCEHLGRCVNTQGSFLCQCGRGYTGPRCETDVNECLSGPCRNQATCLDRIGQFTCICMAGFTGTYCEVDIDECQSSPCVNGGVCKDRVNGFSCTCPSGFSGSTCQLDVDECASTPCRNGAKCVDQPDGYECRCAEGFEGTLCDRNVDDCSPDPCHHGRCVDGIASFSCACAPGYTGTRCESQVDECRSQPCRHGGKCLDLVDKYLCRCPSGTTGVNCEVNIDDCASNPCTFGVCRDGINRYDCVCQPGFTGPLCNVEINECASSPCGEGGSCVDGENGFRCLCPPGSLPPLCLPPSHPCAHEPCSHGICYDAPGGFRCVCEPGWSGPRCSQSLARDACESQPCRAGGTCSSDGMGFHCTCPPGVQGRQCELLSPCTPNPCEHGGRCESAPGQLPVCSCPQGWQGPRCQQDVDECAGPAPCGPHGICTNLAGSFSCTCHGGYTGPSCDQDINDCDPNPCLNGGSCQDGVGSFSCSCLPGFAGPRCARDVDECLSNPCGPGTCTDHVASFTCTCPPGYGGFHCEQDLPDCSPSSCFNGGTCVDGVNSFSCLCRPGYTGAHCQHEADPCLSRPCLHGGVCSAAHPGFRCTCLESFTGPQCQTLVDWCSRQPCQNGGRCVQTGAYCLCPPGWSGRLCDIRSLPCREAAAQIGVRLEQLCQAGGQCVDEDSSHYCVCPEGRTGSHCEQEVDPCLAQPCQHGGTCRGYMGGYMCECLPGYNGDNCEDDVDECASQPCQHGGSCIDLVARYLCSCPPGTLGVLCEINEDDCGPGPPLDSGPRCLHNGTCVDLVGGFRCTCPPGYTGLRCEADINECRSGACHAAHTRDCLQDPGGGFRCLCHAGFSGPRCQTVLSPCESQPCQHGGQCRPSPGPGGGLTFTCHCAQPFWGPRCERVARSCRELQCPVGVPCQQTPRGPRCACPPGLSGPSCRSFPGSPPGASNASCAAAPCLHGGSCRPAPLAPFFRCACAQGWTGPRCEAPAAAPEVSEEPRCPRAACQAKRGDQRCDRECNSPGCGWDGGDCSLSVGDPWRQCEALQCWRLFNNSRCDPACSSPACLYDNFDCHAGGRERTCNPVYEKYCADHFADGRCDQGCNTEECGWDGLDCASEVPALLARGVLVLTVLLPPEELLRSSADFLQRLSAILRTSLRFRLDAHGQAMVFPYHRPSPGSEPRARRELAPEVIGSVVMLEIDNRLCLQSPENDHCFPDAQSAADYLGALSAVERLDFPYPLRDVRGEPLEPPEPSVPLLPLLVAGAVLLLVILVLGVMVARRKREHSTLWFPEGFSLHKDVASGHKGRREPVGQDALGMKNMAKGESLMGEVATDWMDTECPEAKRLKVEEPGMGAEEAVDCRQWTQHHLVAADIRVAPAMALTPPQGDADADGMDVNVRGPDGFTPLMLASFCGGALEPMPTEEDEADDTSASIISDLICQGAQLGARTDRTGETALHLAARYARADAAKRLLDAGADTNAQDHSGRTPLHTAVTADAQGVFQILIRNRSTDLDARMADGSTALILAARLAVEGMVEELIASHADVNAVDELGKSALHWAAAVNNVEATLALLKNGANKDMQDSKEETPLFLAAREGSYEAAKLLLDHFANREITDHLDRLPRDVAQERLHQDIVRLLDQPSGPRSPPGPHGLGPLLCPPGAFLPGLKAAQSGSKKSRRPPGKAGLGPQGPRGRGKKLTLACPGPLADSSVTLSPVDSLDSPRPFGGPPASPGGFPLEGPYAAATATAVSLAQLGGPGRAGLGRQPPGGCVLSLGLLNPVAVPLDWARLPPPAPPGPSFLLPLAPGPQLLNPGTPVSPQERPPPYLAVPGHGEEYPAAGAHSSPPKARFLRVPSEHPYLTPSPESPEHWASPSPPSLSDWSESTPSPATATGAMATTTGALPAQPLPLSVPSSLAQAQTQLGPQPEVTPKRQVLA
UniProt Q9UNP9: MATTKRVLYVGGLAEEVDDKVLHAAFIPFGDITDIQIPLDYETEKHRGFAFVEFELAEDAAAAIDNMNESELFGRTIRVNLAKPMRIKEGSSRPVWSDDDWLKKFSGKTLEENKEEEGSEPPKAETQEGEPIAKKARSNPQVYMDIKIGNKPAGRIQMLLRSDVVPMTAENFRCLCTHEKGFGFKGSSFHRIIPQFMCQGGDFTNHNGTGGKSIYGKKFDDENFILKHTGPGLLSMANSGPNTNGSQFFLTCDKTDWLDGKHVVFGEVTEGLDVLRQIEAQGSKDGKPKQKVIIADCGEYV
UniProt Q9ULC3: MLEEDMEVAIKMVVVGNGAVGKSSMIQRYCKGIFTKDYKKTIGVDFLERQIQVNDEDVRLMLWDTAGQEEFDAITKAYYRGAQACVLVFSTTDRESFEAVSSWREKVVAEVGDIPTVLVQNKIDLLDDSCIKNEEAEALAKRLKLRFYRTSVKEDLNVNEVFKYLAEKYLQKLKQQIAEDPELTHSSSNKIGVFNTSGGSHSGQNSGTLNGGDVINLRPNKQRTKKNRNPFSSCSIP
UniProt Q9UQR1: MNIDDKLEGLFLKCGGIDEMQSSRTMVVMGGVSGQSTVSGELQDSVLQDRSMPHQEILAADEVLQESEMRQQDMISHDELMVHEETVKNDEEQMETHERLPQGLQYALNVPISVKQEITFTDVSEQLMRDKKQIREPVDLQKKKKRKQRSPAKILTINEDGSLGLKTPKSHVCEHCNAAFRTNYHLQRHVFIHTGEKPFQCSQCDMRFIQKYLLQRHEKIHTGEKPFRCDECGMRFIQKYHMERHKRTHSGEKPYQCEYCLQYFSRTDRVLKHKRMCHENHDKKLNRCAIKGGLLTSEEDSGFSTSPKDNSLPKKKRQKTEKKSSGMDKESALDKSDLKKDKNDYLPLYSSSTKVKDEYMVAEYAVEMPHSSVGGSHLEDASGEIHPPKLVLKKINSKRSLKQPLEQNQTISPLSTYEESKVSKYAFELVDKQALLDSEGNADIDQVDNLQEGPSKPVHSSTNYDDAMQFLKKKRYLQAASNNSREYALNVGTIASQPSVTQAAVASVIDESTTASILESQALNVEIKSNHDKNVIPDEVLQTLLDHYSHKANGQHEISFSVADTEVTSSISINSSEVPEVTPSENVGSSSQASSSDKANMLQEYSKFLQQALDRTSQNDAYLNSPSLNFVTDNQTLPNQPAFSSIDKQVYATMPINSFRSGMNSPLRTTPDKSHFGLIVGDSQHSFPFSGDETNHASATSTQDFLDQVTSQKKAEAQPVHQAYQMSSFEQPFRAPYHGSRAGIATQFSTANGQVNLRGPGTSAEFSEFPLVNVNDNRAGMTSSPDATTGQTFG
UniProt Q9UQ84: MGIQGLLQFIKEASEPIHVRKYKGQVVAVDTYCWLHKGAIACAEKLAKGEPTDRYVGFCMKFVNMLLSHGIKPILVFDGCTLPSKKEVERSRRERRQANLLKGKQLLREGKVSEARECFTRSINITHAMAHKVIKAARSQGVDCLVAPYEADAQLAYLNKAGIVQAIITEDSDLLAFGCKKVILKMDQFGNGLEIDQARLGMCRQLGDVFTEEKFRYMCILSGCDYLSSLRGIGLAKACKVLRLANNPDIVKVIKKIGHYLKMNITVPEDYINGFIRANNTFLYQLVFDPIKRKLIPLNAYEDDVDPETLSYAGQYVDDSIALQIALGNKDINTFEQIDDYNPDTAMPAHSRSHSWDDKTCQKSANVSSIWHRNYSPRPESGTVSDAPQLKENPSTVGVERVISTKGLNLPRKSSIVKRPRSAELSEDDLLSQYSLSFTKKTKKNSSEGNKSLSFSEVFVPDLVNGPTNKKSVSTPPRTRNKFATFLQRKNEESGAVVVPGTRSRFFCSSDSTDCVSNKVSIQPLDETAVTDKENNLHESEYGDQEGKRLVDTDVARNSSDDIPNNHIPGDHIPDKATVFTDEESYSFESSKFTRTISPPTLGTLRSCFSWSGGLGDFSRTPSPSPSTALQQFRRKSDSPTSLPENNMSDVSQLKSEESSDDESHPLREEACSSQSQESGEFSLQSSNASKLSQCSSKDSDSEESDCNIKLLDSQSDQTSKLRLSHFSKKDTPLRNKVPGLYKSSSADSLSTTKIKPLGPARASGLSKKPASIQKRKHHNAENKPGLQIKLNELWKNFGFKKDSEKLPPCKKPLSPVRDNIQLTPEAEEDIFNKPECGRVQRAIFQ
UniProt Q9UIE0: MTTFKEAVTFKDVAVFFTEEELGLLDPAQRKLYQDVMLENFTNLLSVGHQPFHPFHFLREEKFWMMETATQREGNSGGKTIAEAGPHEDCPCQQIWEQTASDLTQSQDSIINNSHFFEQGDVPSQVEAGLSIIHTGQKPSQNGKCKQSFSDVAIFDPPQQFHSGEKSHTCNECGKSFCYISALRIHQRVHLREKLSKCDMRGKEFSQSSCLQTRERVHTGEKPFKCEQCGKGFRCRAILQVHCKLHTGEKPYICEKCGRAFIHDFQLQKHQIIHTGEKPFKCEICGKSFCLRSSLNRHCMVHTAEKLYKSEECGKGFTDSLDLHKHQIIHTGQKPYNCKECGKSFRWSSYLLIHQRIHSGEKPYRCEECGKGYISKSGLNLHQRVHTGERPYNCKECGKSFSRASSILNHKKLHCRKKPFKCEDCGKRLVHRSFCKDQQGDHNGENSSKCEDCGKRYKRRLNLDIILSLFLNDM
UniProt Q9UHD1: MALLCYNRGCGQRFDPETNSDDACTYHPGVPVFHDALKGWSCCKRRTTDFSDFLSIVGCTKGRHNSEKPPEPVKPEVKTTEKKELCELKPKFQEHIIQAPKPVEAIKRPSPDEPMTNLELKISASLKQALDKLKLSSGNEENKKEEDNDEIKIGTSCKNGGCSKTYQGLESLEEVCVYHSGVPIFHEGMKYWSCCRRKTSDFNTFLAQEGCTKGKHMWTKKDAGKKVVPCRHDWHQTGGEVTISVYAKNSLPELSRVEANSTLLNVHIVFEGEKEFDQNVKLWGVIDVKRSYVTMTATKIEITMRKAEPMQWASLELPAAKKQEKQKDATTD
UniProt Q9UL40: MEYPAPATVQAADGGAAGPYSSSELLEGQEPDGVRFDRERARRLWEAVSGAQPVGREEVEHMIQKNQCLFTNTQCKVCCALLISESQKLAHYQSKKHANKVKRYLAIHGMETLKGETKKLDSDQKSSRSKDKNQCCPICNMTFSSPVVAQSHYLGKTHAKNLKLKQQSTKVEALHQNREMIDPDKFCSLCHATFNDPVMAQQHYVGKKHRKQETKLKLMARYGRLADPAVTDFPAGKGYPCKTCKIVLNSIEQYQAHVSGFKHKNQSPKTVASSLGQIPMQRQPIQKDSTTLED

These targets were tested with Cc1nc(Nc2ncc(C(=O)Nc3c(C)cccc3Cl)s2)cc(N2CCN(CCO)CC2)n1 [dasatinib] (assay: log2 fold change of tryptic peptide abundance, ligand vs vehicle (limited proteolysis) (log2 ratio); higher = more trypsin-susceptible (destabilized)). Conditions: ligand concentration: 5 uM; sample: K562 cleared lysate.
“FZR1 (peptide sequence: DATSDNGKDGLAYSALLK, peptide start residue: 79) (UniProt Q9UM11)” showed a log2 fold change of -0.000318.
In the case of “TSPYL4 (peptide sequence: AFLQLER, peptide start residue: 224) (UniProt Q9UJ04)”, the log2 fold change is reported as -0.205.
In the case of “MYO6 (peptide sequence: IPFIRPADQYKDPQSK, peptide start residue: 1182) (UniProt Q9UM54)”, the log2 fold change is reported as -0.359.
Target “NOTCH3 (peptide sequence: TGETALHLAAR, peptide start residue: 1927) (UniProt Q9UM47)” has a log2 fold change of -0.434.
“PPIE (peptide sequence: VNLAKPMR, peptide start residue: 79) (UniProt Q9UNP9)” gave a log2 fold change of 0.0527.
“RALY (peptide sequence: KSDVETIFSK, peptide start residue: 35) (UniProt Q9UKM9)” gave a log2 fold change of 0.171.
“MKRN1 (peptide sequence: SCIEAHEK, peptide start residue: 258) (UniProt Q9UHC7)” was tested, and the log2 fold change was -0.312.
For “NSFL1C (peptide sequence: SPGETSKPR, peptide start residue: 140) (UniProt Q9UNZ2)”, the log2 fold change was 0.225.
“RAB23 (peptide sequence: TIGVDFLER, peptide start residue: 41) (UniProt Q9ULC3)” was tested, and the log2 fold change was -0.15.
“ZNF148 (peptide sequence: KAEAQPVHQAYQMSSFEQPFR, peptide start residue: 714) (UniProt Q9UQR1)” showed a log2 fold change of -0.133.
For “EXO1 (peptide sequence: FATFLQR, peptide start residue: 483) (UniProt Q9UQ84)”, the log2 fold change was -0.327.
“RABAC1 (peptide sequence: DQQKDAEAEGLSGTTLLPK, peptide start residue: 6) (UniProt Q9UI14)” gave a log2 fold change of -0.114.
Target “DUSP12 (peptide sequence: ILPVLGSQTGKI, peptide start residue: 329) (UniProt Q9UNI6)” has a log2 fold change of -0.356.
In the case of “UniProt Q9UIE0 (peptide sequence: ASSILNHK, peptide start residue: 580)”, the log2 fold change is reported as 0.399.
“ZMIZ1 (peptide sequence: SDLELQFK, peptide start residue: 604) (UniProt Q9ULJ6)” gave a log2 fold change of -0.3.
“UniProt Q9UJK0 (peptide sequence: GPGAEGGRPR, peptide start residue: 9)” showed a log2 fold change of 0.605.
“PACSIN2 (peptide sequence: EVLLEVQK, peptide start residue: 246) (UniProt Q9UNF0)” gave a log2 fold change of -0.134.
“INO80 (peptide sequence: EVVSLLLDDEELEKK, peptide start residue: 1263) (UniProt Q9ULG1)” showed a log2 fold change of -0.584.
For “CHORDC1 (peptide sequence: VEANSTLLNVHIVFEGEK, peptide start residue: 257) (UniProt Q9UHD1)”, the log2 fold change was 0.178.
“AGTPBP1 (peptide sequence: TLQQQPGDQNR, peptide start residue: 508) (UniProt Q9UPW5)” was tested, and the log2 fold change was -0.258.
“BAZ2A (peptide sequence: NPMDFSTMR, peptide start residue: 1836) (UniProt Q9UIF9)” showed a log2 fold change of 0.626.
“UniProt Q9UQ03 (peptide sequence: IWEIPEGGLK, peptide start residue: 114)” was tested, and the log2 fold change was -0.0142.
In the case of “STOML2 (peptide sequence: ESMQMQVEAERR, peptide start residue: 188) (UniProt Q9UJZ1)”, the log2 fold change is reported as -0.366.
With “KMT2B (peptide sequence: ATSLELPMAMR, peptide start residue: 2555) (UniProt Q9UMN6)” the log2 fold change was -0.26.
In the case of “ZNF346 (peptide sequence: LWEAVSGAQPVGREEVEHMIQK, peptide start residue: 44) (UniProt Q9UL40)”, the log2 fold change is reported as -0.42.
“ZNF391 (peptide sequence: IHGGEKPFECNK, peptide start residue: 130) (UniProt Q9UJN7)” showed a log2 fold change of 0.77.
“USP22 (peptide sequence: QHKDQWFKCDDAIITK, peptide start residue: 486) (UniProt Q9UPT9)” gave a log2 fold change of 0.359.
“DDX19B (peptide sequence: VVPDPNVIK, peptide start residue: 287) (UniProt Q9UMR2)” gave a log2 fold change of -0.0932.
